Measurements as given in patent US20110091479A1 (PIERRE FABRE MEDICAMENT, published 2011).
No constants are given. Whether binding was seen depends on the method and setting. Some binding calls cover weakened binding; strength is not graded here.

Sequences of proteins named here, by UniProt entry; tags and fusion partners are left off. Residues count along the entry.
UniProt P08069, residues 31-1367: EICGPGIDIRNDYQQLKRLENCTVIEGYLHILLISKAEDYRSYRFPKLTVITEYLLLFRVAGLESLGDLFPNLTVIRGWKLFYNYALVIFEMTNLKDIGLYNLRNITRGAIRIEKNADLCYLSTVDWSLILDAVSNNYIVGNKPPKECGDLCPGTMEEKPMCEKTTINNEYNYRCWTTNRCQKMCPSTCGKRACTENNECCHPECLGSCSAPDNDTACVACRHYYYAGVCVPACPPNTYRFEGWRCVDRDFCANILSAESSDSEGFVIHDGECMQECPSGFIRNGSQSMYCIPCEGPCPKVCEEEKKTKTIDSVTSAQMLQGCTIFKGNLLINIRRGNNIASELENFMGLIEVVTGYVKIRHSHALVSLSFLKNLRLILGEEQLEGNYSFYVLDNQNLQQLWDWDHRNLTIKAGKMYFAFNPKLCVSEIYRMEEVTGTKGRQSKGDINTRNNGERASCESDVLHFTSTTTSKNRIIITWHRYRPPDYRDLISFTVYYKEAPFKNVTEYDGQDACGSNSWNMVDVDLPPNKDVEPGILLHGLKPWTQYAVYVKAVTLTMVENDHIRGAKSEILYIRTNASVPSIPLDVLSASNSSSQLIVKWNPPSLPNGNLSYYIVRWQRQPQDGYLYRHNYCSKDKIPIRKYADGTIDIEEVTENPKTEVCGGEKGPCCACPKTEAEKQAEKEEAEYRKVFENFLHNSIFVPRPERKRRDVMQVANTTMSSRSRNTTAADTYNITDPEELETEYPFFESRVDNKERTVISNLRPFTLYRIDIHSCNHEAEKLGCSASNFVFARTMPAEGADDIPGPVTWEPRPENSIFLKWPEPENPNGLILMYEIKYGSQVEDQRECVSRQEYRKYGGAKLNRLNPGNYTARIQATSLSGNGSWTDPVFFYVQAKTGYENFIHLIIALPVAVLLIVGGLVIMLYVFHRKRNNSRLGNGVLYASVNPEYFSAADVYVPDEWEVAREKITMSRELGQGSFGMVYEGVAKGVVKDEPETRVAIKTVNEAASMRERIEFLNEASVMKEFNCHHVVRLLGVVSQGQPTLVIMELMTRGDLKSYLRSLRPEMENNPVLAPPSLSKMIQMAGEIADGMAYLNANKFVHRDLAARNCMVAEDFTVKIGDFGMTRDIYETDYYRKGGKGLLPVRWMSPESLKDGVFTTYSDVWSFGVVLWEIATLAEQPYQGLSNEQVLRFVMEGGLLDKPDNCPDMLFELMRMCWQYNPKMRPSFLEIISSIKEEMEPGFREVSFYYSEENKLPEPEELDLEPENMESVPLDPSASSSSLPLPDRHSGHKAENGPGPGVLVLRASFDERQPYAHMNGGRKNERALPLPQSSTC

How the values were obtained:
[1] = target: human insulin-like growth factor I receptor IGF-IR (human) (UniProt P08069); experiment: FACSCAN analysis on Sf9 IGF-1R+ cells
[2] = target: human insulin-like growth factor I receptor IGF-IR (human) (UniProt P08069); experiment: FACSCAN analysis on MCF-7 cells

binding [1]: binds | binding [2]: binds
B1: 12D5 (antibody, V domains shown)
VH: QVQLKESGPGLVAPSQSLSITCTVSGFSLNEYGVSWIRQPPGKGLEWLGVIWGGRDTYYHSPLKSRLSITKDNSKSQVFLKMNSLQTDDTAMYYCAKHEGMDYWGQGTSVTVSS
VL: DIVMTQSQKFMSTSVGDRVSVTCKASQNVVTNVAWYQHKPGHSPKPLIYSASYRYSGVPDRFTGSGSGTDFTLTINNVQSEDLAEYFCHQYNNFPLTFGAGTKLELK
